# Test results published in article PMC7819943, “Rice protein-binding microarrays: a tool to detect cis-acting elements near promoter regions in rice”.
# By UniProt entry, the sequences of proteins in these tests, tags left out.
# UniProt Q0JBA9, entry or part of it: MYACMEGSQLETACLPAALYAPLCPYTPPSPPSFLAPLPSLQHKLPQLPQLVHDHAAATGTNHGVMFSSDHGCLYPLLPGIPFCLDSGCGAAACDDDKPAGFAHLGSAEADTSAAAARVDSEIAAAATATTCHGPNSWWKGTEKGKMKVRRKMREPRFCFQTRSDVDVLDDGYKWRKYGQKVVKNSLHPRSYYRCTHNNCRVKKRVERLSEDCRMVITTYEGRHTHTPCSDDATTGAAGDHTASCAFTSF
# The list shows a part of the results.
# Target: OsWRKY34 (Oryza sativa, UniProt Q0JBA9 1-250)
# Experiment: protein-binding microarray (RPBM); PBS, 2% BSA, 51.3 ng/ul salmon testes DNA, 50 uM zinc acetate, 200 nM TF, 25 C, 1 h; high values mean tight binding
# Conditions: protein: recombinant; tags: N-terminal polyhistidine and DsRed monomer fusion (pET32a); label: CyDye5-dUTP incorporated in the synthesized complementary strand; 3' TTTTT single-stranded linker to array surface; dsDNA, one strand shown
# Procedure, shortened: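 Transcription factors were each fused at the N-terminus to a polyhistidine tag plus DsRed and expressed in E. coli BL21-CodonPlus before Ni–NTA purification. Binding to a double-stranded custom Agilent array was carried out with 200 nM protein at 25 °C for 1 h in PBS, 2% BSA, salmon testes DNA and 50 µM zinc acetate. The binding signal is per-feature fluorescence intensity, in arbitrary units, on an Axon 4000B scanner.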
row,Sequence,binding signal
1,TCTCTTCTCTACCAATCATATTTATTCTTCATCTATTATGCGGAGTCACCTAGTGCAG,9020 fluorescence intensity (a.u.)
2,CCTGGTGTTTGATTTCCACAATTTTTTTTAATTGCTTACACGGAGTCACCTAGTGCAG,11900 fluorescence intensity (a.u.)
3,CTTTTACAGGAGTAGTTTTGTTTTAGGCTGTGTTTAGATCCGGAGTCACCTAGTGCAG,8520 fluorescence intensity (a.u.)
4,CATCATCATCCGTCTTCTTCCACTCGCGTAGAAGCAAGTCCGGAGTCACCTAGTGCAG,8940 fluorescence intensity (a.u.)
5,AGATCTTGATCCGCTCTGCCTCAATCTTCCACACGACCACCGGAGTCACCTAGTGCAG,8920 fluorescence intensity (a.u.)
6,AGTAGTAGTGCAACTTCCTTTTTCCGATGTATCTTTTTTTCGGAGTCACCTAGTGCAG,9630 fluorescence intensity (a.u.)
7,ATCCTAATATTTTTGTGTTGAAATTCGGTCTTCACTTTTCCGGAGTCACCTAGTGCAG,11500 fluorescence intensity (a.u.)
8,ACATTACCCTTTTGATCTCATGGCTTTGACTCTTAGGGTTCGGAGTCACCTAGTGCAG,8760 fluorescence intensity (a.u.)
9,AACAGGTGGGTCCATTAGCGCCACACTATTTTCTCTCCATCGGAGTCACCTAGTGCAG,9590 fluorescence intensity (a.u.)
10,CTTCTCTCCTCTCCGCTGTGGTTTCTTGCTGGTTCTTGGACGGAGTCACCTAGTGCAG,10400 fluorescence intensity (a.u.)
11,ACTGCTGTACATCATCATTGACATGCTATAATTTTTTTTCCGGAGTCACCTAGTGCAG,9080 fluorescence intensity (a.u.)
12,ACCATGCCACCATATGTCTGATTAGCACACTTCTTTTAAACGGAGTCACCTAGTGCAG,8720 fluorescence intensity (a.u.)
13,TGCATCTTCTTCTTCTTCCTCCCTTTGCCTTGGATTTTCCCGGAGTCACCTAGTGCAG,8800 fluorescence intensity (a.u.)
14,GTGTTGAAAATTTGGCACATCCTTTGTTTTTTCCCCTTTTCGGAGTCACCTAGTGCAG,9980 fluorescence intensity (a.u.)
15,ACCCTATTTTAATTACCACATTATATGCATACATTTCATGCGGAGTCACCTAGTGCAG,8280 fluorescence intensity (a.u.)
16,AGTATTCTCTCTCTCTAGTACATTCTCATGTTCTTTCAGGCGGAGTCACCTAGTGCAG,8140 fluorescence intensity (a.u.)
17,CGCCGCCCATCTTGTCCCAATTCGGCTCCTATAAATTTCCCGGAGTCACCTAGTGCAG,8750 fluorescence intensity (a.u.)
18,ATTATTATCCTTGCTCTCATTCTCTCTCTTTGATTCTCTCCGGAGTCACCTAGTGCAG,9870 fluorescence intensity (a.u.)
19,CGTTTCAGTTTATAAGACGTTTTGACTCTTGTCAAATTTTCGGAGTCACCTAGTGCAG,9300 fluorescence intensity (a.u.)
20,AAAGAAACAGAGTTATCTGCCACACGTATTTTTTTCTTGTCGGAGTCACCTAGTGCAG,9110 fluorescence intensity (a.u.)
21,TCTTACTTGACCCTTCTTTCTTGTCCATACAGATTGGGCCCGGAGTCACCTAGTGCAG,9090 fluorescence intensity (a.u.)

row,Sequence,binding signal
1,GTTTCTTTTTTTTTCTCCTTTCCACCTATAGGTTACTAGCCGGAGTCACCTAGTGCAG,8220 fluorescence intensity (a.u.)
2,CATCATTTACATCTTGGGCATTTGCGATAGCTCTAGGGTTCGGAGTCACCTAGTGCAG,8500 fluorescence intensity (a.u.)
3,AAAGTTCGTTTCAGCTCCTGTTATGATCCATCTACACCTTCGGAGTCACCTAGTGCAG,9180 fluorescence intensity (a.u.)
4,GATACACCCATGCCAATTCATTTGCCTTTGATTAATAAAACGGAGTCACCTAGTGCAG,8690 fluorescence intensity (a.u.)
5,CCTCGACGACCTCTACACCATGTGGCGCTACCTGCCGTCGCGGAGTCACCTAGTGCAG,8580 fluorescence intensity (a.u.)
6,ACGTAGTTTTTCTGTGTTTTTTTTCTTATTGATTATAGATCGGAGTCACCTAGTGCAG,9190 fluorescence intensity (a.u.)
7,CCCAACACGGCCCATCCACGCAGCCTTCTTTGCCTATATCCGGAGTCACCTAGTGCAG,10200 fluorescence intensity (a.u.)
8,AAGTCTGTTTATAAAAGTCGACATGTGTATCACATTATATCGGAGTCACCTAGTGCAG,8780 fluorescence intensity (a.u.)
9,AAAAAGTCAACGGCGTCAAACATATTGAAACGGAGGGAGTCGGAGTCACCTAGTGCAG,8240 fluorescence intensity (a.u.)
10,CCACTCCGACTAAGCCTTCACATTTCTTCTCTAGCGTTACCGGAGTCACCTAGTGCAG,11300 fluorescence intensity (a.u.)
11,ACATGCTGCATTTCTTTTTTCATGGTTTGGCACTTATTTACGGAGTCACCTAGTGCAG,9200 fluorescence intensity (a.u.)
12,CTGAACTTTTTTTTTGCTTAAATCCTCTGTATCACCCCAACGGAGTCACCTAGTGCAG,8740 fluorescence intensity (a.u.)
13,GGCAGCCCGACCTACGCGTACCCACGTATTCCCCACCTTACGGAGTCACCTAGTGCAG,10300 fluorescence intensity (a.u.)
14,ACCTCATAGTTGTGCAAGTTATCGTGTTTTTTTGTCTGTTCGGAGTCACCTAGTGCAG,14800 fluorescence intensity (a.u.)
15,CTATTTTGCCATTTTGCATTTTCTACATACCAATTTATTTCGGAGTCACCTAGTGCAG,8350 fluorescence intensity (a.u.)
16,GTTTCGTTCGATATGGCAGCTGTTCACTCTTGGTCCTCGGCGGAGTCACCTAGTGCAG,8380 fluorescence intensity (a.u.)
17,AGATCCACGCGTGTTGCGGACTTGCGGTTGCTTTTGTTCGCGGAGTCACCTAGTGCAG,8620 fluorescence intensity (a.u.)
18,CCTTTTCAATGTTCTTGTCATCACTGCTCGTGTCACCCGTCGGAGTCACCTAGTGCAG,11400 fluorescence intensity (a.u.)
19,ATTTTCAAAATATTTGACACTGTTGACTTTTTAGTACATACGGAGTCACCTAGTGCAG,9840 fluorescence intensity (a.u.)
20,CGTCTCACCGCCACCGATTCTCGTCGCCGCCGACGCCTTCCGGAGTCACCTAGTGCAG,8790 fluorescence intensity (a.u.)
21,TTCTAACTTTTCGTCACATCGAACTTTTCTACGCGCACAACGGAGTCACCTAGTGCAG,8230 fluorescence intensity (a.u.)

row,Sequence,binding signal
1,ATGCTTCAATTCCATATTTCTTGGCCTCCTCTTCTCCATGCGGAGTCACCTAGTGCAG,8380 fluorescence intensity (a.u.)
2,TTTCTCTTTCTTTTTCTTTTTTGGGCCTCCTAAAGTTGACCGGAGTCACCTAGTGCAG,8020 fluorescence intensity (a.u.)
3,GGGTGGAGCTGAACTGATGGGCCGAACTATGTATGGTTGGCGGAGTCACCTAGTGCAG,9030 fluorescence intensity (a.u.)
4,ATTCCGTGTTCAATTCCTAACACGCTTATAATTATTTCTTCGGAGTCACCTAGTGCAG,8100 fluorescence intensity (a.u.)
5,TCGCTGACATGTGGGCCCGCGTCTCCGCTCCATCGCGAACCGGAGTCACCTAGTGCAG,9400 fluorescence intensity (a.u.)
6,AACTGTATGGTCTGTCAGTCTGCCTTGATATATAATTCTACGGAGTCACCTAGTGCAG,9120 fluorescence intensity (a.u.)
7,GCCGCTACCCTCCTCGTCGGTGTCGGGCTATTTATACACTCGGAGTCACCTAGTGCAG,8150 fluorescence intensity (a.u.)
8,ATGGGTGTTGTCGGGTATGTGATGCAATTTGTTAGATAATCGGAGTCACCTAGTGCAG,11100 fluorescence intensity (a.u.)
9,ATTATAGTAGATGTTGTTGTAACCTGCAAGACTCTTCTCTCGGAGTCACCTAGTGCAG,9970 fluorescence intensity (a.u.)
10,TGTACGTACTGGTTTTGACTTTTGTCAACTATTGAAATCTCGGAGTCACCTAGTGCAG,8510 fluorescence intensity (a.u.)
11,TCTCTCGCCGCCGTCTCGCACCTCGCGTCGCCGCCGCCGCCGGAGTCACCTAGTGCAG,10500 fluorescence intensity (a.u.)
12,CACACCCAGCAACACTTCGCCTTCCATGCTTAAGCAAAACCGGAGTCACCTAGTGCAG,8070 fluorescence intensity (a.u.)
13,AAGATTGCCGCTGGGGTTTTTATTTGTTTTATTCGTGGATCGGAGTCACCTAGTGCAG,8390 fluorescence intensity (a.u.)
14,ATTTGGATTGTTTTTGTCTCTCGTTGTCAACTAGGTATTACGGAGTCACCTAGTGCAG,14300 fluorescence intensity (a.u.)
15,GCCCATGTGTTGTTGCGTCGTCGCCGTGCTTGTTCTTGGTCGGAGTCACCTAGTGCAG,10900 fluorescence intensity (a.u.)
16,GTACAGTTTGCCAATTTCATTACTTGTGTTTATCTGAATTCGGAGTCACCTAGTGCAG,11700 fluorescence intensity (a.u.)
17,TTCGTCCGTCTGTCATCTGTGTGGCCCGGAGCCCATCCCGCGGAGTCACCTAGTGCAG,8210 fluorescence intensity (a.u.)
18,CAGTCTGTTGACTTTCTTTACATGCCATGTGCTCTCTAATCGGAGTCACCTAGTGCAG,12300 fluorescence intensity (a.u.)
19,CGCTACAAATATGTATACACTGCCTTACTCTAATTAGAAGCGGAGTCACCTAGTGCAG,9610 fluorescence intensity (a.u.)
20,GTCAACGGCTACTTCTCCTTATCCCCACCTCCTCCTCCTCCGGAGTCACCTAGTGCAG,8140 fluorescence intensity (a.u.)
21,GGTTGGTGCTGTATTGTTTGAGGGGAGGGGATTCCATTTTCGGAGTCACCTAGTGCAG,47400 fluorescence intensity (a.u.)

row,Sequence,binding signal
1,TTCGTGTTCCGAGAAAAATTTGTTTCCGTATTCGTGTCCGCGGAGTCACCTAGTGCAG,8090 fluorescence intensity (a.u.)
2,CATGGCCACCATTGAGACACACTACCACTGCTACTCTCTCCGGAGTCACCTAGTGCAG,10200 fluorescence intensity (a.u.)
3,TACTTCTCTGCGAGCAGCGTTTCCTGCCGTCAGAATTCGGCGGAGTCACCTAGTGCAG,8040 fluorescence intensity (a.u.)
4,TGATTCTCGCTGTTTCAACTGCGGTTCTTATAGTCATGCTCGGAGTCACCTAGTGCAG,8560 fluorescence intensity (a.u.)
5,GTAACTTTCTGCAGACTGCAACATTCTGAATCTAACTTTTCGGAGTCACCTAGTGCAG,9120 fluorescence intensity (a.u.)
6,TCTCGGTTATTTTCCCAGCCTCCACCTCCAGTGGCTGTTGCGGAGTCACCTAGTGCAG,8420 fluorescence intensity (a.u.)
7,GCCATCACCGTCGCCGCGACGCCCGTCACCGGCCGCCGGCCGGAGTCACCTAGTGCAG,9980 fluorescence intensity (a.u.)
8,TCCTTCCATCTCTCTGCTCACTTCACTTCACCTTCCAATGCGGAGTCACCTAGTGCAG,9020 fluorescence intensity (a.u.)
9,AACACCCAACCATGTACCATTCCATGCACAACCACAACCACGGAGTCACCTAGTGCAG,13000 fluorescence intensity (a.u.)
10,GACGGGAGACCCAATCATAAATTGGAGGCGCCGGCCATCTCGGAGTCACCTAGTGCAG,11800 fluorescence intensity (a.u.)
11,TTCACACTACTCCTTCAGATTAATCCATCTCGTTGATATTCGGAGTCACCTAGTGCAG,9490 fluorescence intensity (a.u.)
12,CTTCTTCTCTCCGCTCCGCGTGTCCACTCCTCTCCCAATCCGGAGTCACCTAGTGCAG,12200 fluorescence intensity (a.u.)
13,TATACTTTATCTACTCCTAGCACATTTATTCCTTACTTTCCGGAGTCACCTAGTGCAG,9520 fluorescence intensity (a.u.)
14,TGGGGTTGACTTGTTTTATCACTACTCGAAGGAACGGCTCCGGAGTCACCTAGTGCAG,10300 fluorescence intensity (a.u.)
15,CAGCCGTCCACTTTTCAACCCTATGTCGGATTTATACAGTCGGAGTCACCTAGTGCAG,11300 fluorescence intensity (a.u.)
16,GGAGCTGGAGTTGCATGCATTGCTTTACCCTGGCCGTATGCGGAGTCACCTAGTGCAG,8590 fluorescence intensity (a.u.)
17,TTTTTCCTGTGTTTTGTAATCCTCTATTTTACACTTATATCGGAGTCACCTAGTGCAG,10900 fluorescence intensity (a.u.)
18,TTACGCCTACCACATCGCTCCTGCTGTCTGCTGTCCTAGCCGGAGTCACCTAGTGCAG,9180 fluorescence intensity (a.u.)
19,TTCAATATGTTGCGCATATTTGATCTGTTCATGTTATTCTCGGAGTCACCTAGTGCAG,8390 fluorescence intensity (a.u.)
20,CTCTAGTTTCCATTCCATTTCCACCGCCACTCCCACCCAACGGAGTCACCTAGTGCAG,8380 fluorescence intensity (a.u.)
21,GGATCGGATCGATCATTCTCGTGGCTTATACTTGGAATCTCGGAGTCACCTAGTGCAG,9070 fluorescence intensity (a.u.)
